Measured values: paper PMC2662408

Amino acid sequences for entries named in this document (tags omitted). A change or cut given only in a name is not applied to a line headed by its entry.
UniProt P45975: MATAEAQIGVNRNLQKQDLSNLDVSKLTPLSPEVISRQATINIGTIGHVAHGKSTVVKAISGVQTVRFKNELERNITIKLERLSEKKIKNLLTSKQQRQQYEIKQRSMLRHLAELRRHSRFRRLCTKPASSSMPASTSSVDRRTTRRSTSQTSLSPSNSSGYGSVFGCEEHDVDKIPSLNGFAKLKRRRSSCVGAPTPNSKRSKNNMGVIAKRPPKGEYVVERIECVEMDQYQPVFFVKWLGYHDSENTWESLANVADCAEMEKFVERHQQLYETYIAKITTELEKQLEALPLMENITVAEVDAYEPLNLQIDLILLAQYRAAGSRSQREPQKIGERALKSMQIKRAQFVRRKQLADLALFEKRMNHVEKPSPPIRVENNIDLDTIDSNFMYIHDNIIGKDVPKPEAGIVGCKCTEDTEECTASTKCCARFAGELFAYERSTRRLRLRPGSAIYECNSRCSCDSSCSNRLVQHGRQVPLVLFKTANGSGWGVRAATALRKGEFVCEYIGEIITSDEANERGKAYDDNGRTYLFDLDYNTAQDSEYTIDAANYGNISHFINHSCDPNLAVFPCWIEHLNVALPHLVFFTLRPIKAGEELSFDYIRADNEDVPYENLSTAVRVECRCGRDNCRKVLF
UniProt Q02748: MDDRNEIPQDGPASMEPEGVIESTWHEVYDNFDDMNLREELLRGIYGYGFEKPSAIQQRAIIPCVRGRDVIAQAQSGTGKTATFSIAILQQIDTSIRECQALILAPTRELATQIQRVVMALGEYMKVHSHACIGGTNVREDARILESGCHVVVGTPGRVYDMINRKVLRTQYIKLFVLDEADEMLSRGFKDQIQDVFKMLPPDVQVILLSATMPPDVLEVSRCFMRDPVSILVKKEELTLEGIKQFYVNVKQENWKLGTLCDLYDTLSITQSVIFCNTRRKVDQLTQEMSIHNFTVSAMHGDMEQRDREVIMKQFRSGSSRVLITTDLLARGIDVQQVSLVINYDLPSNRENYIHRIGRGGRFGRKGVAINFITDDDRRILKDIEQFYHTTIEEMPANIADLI

Target: T1, FLAG tagged HP1c (Drosophila) (UniProt Q9VCU6)
T1 sequence: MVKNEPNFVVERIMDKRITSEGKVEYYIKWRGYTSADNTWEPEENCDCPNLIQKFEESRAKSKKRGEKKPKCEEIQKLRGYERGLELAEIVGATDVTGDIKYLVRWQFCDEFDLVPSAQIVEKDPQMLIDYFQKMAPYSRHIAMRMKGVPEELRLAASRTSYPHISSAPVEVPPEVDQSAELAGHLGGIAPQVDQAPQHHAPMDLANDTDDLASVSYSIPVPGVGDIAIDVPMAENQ
Experiment: affinity purification with mass spectrometry; nuclear extract of SL2 cells stably expressing HP1cFLAG on M2 anti-FLAG agarose, 2 hours at 4°C, washed with CB300, eluted with FLAG-peptide, SDS-PAGE, GeLC MS/MS and LC MS/MS; non-transfected cells as control

Row | Substance | binding
1 | Row (Drosophila (endogenous in SL2 cells)) | binds
2 | Su(var)3–9 (from UniProt P45975 1-635) | no binding
3 | Woc (Drosophila (endogenous in SL2 cells)) | binds
4 | eIF4a (from UniProt Q02748 1-403) | binds

Results are given in words; binding and its absence hold for the method and conditions named. In cells and extracts the contact can be indirect. These calls come from enrichment with a bait or labelling near it, and not all partners need be listed. A no says only that the protein was not detected with the bait. Sequences can lack the tags named with a protein.
